Experimental findings from patent publication US6352972 are described below.

By UniProt entry, the sequences of proteins in these tests, tags left out. Where a name states a change or a piece, a line headed by the entry shows the natural chain unless it says otherwise. Chains listed by the source or under a name are the forms on record and can include a tag or linker.
UniProt P02453: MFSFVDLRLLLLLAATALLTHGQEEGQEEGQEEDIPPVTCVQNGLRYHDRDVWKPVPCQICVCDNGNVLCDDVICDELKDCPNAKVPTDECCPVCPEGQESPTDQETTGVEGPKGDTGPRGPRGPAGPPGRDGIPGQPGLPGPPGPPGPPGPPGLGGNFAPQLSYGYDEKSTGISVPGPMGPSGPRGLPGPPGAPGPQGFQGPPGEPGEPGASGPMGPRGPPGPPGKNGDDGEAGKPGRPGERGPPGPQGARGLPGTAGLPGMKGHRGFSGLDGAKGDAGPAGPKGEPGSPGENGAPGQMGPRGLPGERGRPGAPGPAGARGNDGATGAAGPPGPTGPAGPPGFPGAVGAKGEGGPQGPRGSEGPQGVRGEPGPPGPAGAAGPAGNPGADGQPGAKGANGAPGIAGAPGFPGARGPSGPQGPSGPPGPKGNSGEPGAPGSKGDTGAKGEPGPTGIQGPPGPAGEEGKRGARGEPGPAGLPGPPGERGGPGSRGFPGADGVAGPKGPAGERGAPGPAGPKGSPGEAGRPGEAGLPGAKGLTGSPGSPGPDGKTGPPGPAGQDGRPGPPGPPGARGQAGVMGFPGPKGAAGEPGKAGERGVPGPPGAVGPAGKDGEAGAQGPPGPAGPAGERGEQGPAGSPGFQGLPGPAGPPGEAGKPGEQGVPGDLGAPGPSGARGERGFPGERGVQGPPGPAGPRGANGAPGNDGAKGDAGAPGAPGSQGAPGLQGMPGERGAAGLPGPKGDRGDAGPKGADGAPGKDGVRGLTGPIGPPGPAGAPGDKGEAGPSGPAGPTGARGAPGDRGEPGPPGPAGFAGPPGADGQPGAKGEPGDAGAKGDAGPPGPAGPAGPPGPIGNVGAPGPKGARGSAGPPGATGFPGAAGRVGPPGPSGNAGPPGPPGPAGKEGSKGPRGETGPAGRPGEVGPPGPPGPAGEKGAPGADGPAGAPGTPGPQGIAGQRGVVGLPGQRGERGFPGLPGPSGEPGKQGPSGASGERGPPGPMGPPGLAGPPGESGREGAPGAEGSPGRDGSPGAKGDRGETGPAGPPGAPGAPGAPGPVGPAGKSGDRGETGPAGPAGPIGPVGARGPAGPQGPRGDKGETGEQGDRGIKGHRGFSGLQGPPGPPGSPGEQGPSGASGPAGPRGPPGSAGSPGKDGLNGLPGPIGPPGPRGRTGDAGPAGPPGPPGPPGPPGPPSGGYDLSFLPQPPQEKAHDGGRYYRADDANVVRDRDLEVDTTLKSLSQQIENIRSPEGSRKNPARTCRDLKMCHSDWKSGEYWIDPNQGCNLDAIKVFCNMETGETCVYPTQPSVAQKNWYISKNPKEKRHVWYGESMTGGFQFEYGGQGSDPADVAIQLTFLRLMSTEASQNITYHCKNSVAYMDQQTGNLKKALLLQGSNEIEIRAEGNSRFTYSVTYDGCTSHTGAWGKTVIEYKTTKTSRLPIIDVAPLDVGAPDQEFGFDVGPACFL
UniProt P02465: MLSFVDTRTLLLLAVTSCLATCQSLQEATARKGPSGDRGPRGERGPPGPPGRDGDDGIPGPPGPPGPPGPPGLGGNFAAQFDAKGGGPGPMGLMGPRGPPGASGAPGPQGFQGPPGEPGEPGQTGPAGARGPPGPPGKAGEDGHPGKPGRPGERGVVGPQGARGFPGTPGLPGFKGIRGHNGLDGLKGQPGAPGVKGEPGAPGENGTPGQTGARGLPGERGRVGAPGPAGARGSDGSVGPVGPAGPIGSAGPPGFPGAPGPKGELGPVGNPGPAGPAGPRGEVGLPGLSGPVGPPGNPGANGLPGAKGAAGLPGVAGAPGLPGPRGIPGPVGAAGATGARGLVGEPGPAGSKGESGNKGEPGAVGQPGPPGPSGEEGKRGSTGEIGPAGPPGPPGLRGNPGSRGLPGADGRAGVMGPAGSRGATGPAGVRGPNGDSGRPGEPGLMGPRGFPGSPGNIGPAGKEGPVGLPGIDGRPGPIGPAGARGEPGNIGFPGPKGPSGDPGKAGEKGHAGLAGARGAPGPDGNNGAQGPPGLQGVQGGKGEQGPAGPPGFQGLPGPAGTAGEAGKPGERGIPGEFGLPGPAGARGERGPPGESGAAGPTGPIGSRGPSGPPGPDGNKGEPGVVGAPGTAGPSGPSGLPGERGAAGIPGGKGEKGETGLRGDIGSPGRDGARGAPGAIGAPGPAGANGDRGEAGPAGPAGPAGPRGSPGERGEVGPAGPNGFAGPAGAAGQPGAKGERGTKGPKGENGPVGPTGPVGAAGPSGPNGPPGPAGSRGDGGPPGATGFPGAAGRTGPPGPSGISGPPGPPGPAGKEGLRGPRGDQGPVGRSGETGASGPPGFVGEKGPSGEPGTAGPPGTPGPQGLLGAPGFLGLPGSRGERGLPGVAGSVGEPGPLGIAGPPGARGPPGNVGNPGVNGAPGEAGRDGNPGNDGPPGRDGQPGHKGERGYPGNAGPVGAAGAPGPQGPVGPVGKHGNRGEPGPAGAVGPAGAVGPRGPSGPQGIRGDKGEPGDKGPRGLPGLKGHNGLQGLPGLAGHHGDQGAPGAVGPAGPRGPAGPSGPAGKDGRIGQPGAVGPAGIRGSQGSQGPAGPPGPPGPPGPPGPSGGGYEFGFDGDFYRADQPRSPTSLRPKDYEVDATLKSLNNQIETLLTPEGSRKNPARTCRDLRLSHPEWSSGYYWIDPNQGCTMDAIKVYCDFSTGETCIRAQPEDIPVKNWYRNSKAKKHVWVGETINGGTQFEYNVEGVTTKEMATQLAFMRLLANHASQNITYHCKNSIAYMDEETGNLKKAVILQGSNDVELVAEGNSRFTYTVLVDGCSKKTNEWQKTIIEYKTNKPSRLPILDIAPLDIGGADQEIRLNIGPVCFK
human plasma fibronectin (P02751, form named): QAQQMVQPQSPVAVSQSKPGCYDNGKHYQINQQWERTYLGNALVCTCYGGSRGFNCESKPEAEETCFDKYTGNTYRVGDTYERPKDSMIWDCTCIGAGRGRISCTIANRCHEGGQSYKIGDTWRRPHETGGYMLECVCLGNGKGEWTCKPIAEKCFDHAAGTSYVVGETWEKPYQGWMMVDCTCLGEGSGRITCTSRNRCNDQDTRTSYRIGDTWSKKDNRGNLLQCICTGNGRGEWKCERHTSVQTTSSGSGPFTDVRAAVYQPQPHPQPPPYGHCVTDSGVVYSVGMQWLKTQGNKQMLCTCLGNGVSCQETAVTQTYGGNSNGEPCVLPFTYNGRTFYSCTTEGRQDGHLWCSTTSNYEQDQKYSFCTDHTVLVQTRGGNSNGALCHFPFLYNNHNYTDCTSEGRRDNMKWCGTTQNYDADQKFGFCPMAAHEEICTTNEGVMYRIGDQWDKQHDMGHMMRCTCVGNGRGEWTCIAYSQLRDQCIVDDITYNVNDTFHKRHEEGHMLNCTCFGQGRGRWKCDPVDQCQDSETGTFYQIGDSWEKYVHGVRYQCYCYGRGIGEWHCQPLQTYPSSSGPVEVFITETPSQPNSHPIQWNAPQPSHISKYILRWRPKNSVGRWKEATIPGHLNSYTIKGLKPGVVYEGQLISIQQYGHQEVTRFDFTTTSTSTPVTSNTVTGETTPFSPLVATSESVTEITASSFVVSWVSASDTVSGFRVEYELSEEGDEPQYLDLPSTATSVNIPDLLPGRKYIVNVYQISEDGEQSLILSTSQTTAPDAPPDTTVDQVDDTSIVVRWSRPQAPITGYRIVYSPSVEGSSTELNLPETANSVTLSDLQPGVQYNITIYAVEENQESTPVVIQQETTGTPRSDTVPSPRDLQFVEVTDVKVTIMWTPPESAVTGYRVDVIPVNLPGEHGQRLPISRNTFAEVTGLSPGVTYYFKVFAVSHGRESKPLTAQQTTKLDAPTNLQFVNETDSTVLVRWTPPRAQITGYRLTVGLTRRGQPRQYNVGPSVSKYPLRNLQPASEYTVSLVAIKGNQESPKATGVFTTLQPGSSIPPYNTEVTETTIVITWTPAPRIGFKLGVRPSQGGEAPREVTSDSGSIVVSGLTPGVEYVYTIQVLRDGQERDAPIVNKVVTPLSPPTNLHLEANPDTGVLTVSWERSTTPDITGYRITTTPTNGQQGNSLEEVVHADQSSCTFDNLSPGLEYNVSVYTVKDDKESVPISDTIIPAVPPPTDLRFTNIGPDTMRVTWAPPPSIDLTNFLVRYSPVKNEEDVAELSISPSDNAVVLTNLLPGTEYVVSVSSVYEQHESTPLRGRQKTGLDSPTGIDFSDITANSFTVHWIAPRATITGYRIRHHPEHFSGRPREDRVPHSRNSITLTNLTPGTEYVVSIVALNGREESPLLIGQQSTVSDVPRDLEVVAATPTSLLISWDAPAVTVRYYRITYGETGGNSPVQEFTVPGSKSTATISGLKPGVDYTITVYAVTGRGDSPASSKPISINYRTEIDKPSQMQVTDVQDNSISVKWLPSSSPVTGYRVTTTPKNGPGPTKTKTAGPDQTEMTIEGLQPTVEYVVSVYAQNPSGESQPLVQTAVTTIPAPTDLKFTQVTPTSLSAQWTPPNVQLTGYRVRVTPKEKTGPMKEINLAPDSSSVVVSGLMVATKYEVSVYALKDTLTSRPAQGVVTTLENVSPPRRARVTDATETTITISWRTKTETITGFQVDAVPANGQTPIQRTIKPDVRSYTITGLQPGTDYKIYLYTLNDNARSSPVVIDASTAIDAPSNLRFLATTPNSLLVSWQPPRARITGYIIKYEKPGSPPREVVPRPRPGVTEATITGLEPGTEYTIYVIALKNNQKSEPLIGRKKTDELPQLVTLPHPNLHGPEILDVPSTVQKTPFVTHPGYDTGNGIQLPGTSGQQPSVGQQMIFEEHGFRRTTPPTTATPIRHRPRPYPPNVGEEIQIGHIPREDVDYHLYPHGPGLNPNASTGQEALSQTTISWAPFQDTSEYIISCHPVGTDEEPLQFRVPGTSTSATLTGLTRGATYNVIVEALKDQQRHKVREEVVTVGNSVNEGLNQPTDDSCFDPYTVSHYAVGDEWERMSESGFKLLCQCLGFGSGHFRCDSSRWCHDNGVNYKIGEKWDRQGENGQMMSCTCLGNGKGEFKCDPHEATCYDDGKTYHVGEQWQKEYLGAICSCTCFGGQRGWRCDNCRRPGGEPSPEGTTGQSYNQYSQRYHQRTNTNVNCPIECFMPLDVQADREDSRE
UniProt P01137: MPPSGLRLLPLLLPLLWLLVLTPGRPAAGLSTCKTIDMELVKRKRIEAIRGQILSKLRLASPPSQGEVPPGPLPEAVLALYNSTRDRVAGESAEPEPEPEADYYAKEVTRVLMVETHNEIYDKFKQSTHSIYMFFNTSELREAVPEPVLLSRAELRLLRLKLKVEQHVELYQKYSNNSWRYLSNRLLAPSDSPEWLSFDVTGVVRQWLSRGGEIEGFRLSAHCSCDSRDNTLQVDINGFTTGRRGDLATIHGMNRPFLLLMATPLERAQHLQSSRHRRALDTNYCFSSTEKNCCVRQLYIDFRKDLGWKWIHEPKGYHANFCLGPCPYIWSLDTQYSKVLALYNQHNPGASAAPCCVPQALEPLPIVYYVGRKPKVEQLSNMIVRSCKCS

Assay [1] addresses pepsin-treated, acid-extracted bovine tendon collagen type I (bovine) (UniProt P02453+P02465). The assay can be described thus: adsorbed onto collagen-coated wells, rinsed, Mv1Lu proliferation read-out.
The target in assay [2] is human plasma fibronectin (human) (UniProt P02751). Put plainly: adsorbed onto fibronectin-coated wells, rinsed, Mv1Lu proliferation read-out.

These are yes or no findings as the source states them, for the method shown. Some results given as binding are weak or reduced against the parent protein; the word gives no strength.

As for “TGFβ1-Thrombin fusion protein (from UniProt P01137 279-390)”, the binding result in assay [1] and in assay [2] was “binds” in each case.
